Test results from patent publication US8772463B2, “Fluorescent dye-labeled glucose bioprobe, synthesis method and usage thereof” (SNU R&DB Foundation, priority 2007, dated 2014).

System: NIH/3T3 cells
Assay: FACS-based flow cytometric analysis of probe uptake with/without 11 mM D-glucose
Type: cell-based, murine
Experimental: FACS (Fluorescence Activated Cell Sorting)-based flow cytometric analysis was used to compare cellular uptake efficiency in NIH/3T3 cells among the glucose probe [2-(N-Cy3-piperazinoethyl)]-α-D-glucose (GB2-Cy3), synthesized in Example 2, the conventional fluorescent glucose probe 2-NBDG and the glucose probe Cy3-Glc-α, synthesized in Example 1.
NIH/3T3 cells were cultured on 10 cm cell culture dishes and transferred in a volume of 3×10^5 cells into each FACS tube (5 mL, BD). They were washed once with cold PBS before incubation at 37° C. for 30 min in 11 mM D-glucose-containing PBS or glucose-free PBS in the presence of the bioprobe [GB2-Cy3 (5 μM), 2-NBDG (5 μM or 50 μM) or Cy3-Glc-α (5 μM)]. Cells that were incubated without the bioprobes were used as a negative control. After being washed with cold PBS, 1×10^4 NIH/3T3 cells were analyzed on FACSCalibur™ (FACS-based flow cytometer). GBs-Cy3 was detected by FL2 channels. Raw data of 1×10^4 cells are shown in histograms, with the mean values thereof given in the graph of FIG. 21.

## C[N+]1=C(/C=C/C=C2/N(CCCCC(=O)N3CCN(CCOC4OC(CO)C(O)C(O)C4O)CC3)c3ccccc3C2(C)C)C(C)(C)c2ccccc21 [GB2-Cy3, [2-(N-Cy3-piperazinoethyl)]-α-D-glucose]
  concentration at which probe competes with D-glucose for cellular uptake: 5 µM
